Reference: PubChem BioAssay AID624297 (National Center for Advancing Translational Sciences (NCATS), 2012)
“And” between values parts separate entries of the source, which are not always exact repeats. Identical values can stand only once. In all, about 340,000 compounds went through this assay and about 6,200 (1.8%) were called active. This list was built around the results that the source calls inconclusive (neither active nor inactive); the mix of calls is not that of the screen. The call rests on the fitted dose curve; in most records, active means well fitted activation curve with a large enough effect; inconclusive means small, poorly fitted or top-dose-only effect; inactive means no such curve, though single readings can be large or run the other way. Potencies beside an inconclusive call are fits to weak or partial responses and may not hold up.

Assay: A quantitative high throughput screen for small molecules that induce DNA re-replication in SW480 colon adenocarcinoma cells. Further: nearly all actives have a fitted effect of over 55% in size. On re-replication activation: % of control where 0% means no effect.
Conditions: Hoechst DNA content imaging, 48 h; re-replication activation: at 46.1 µM (top of the series) unless noted
Procedure, shortened: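 Readout is total intensity of Hoechst-stained nuclei, excited at 405 nm and collected at 500-530 nm. Compound treatment lasted 48 hr at 37 C in 5% CO2 before staining.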
Potency means the concentration at half of the fitted maximal effect.

Row | Compound | re-replication activation | Potency
1 | Cc1ccc(NC(=O)COC(=O)c2cccc(C)c2[N+](=O)[O-])cc1S(=O)(=O)N1CCCCC1 | inactive: -11.4% | –
2 | CN1CCN(CC(=O)N2c3ccccc3C(C)(c3ccc(Cl)cc3)CC2(C)C)CC1 (stereo not drawn) | – | inconclusive: 32.6 µM [activator, partial curve, poor fit]
3 | COc1ccc(C(=O)CC(=O)C(=O)Nc2ccccc2Cl)cc1 | inactive: 0.137% | –
4 | Cc1cc(N2C(=O)C(O)=C(C(=O)c3cc4ccccc4o3)C2c2cccc(Cl)c2)no1 (stereo not drawn) | – | inconclusive: 29.1 µM [activator, single point]
5 | CCOC(=O)c1c(NC(=O)CCC(=O)N(CC)CC)sc2c1CC(C)(C)OC2 | – | inconclusive: 2.06 µM [activator, partial curve, poor fit]
6 | COc1ccc(C(NC(=O)c2c(F)c(F)c(F)c(F)c2F)c2ccccc2)cc1 (stereo not drawn) | – | inconclusive: 18.4 µM [activator, single point]
7 | Cc1[nH]c2ccccc2c1C1=NNC(=Nc2ccc(F)cc2)SC1 | – | inconclusive: 29.1 µM [activator, single point]
8 | Cc1c(Br)c(=O)oc2c(Br)c(O)ccc12 | inactive: 5.11% | –
9 | COc1ccc(-c2cc(C(=O)Nc3c(C)n(C)n(-c4ccccc4)c3=O)c3ccccc3n2)cc1OC | inactive: -3.72% | –
10 | CCCN1C(=O)/C(=N\OCC(=O)Nc2ccc(C(C)C)cc2)c2ccccc21 | – | inconclusive: 6.51 µM [activator, single point]
11 | Cc1nnc(SCCn2c(N(C)Cc3ccccc3)nc3c2c(=O)[nH]c(=O)n3C)s1 | – | inconclusive: 23.1 µM [activator, partial curve, poor fit]
12 | O=C(CCn1cccn1)N1CCCC(N2CCN(c3cccc(C(F)(F)F)c3)CC2)C1 (stereo not drawn) | inactive: -5.98% | –
13 | O=C(CSc1ncc(-c2ccc(F)cc2)[nH]1)N1CCCCC1 | inactive: -7.02% | –
14 | OC1(c2cccs2)CN(c2ccccc2)C2=[N+]1CCCC2 (stereo not drawn) | inactive: 1.41% | –
15 | Cc1ccc2c(c1)N(CC(=O)N1CCCC1)C(=O)CO2 | – | inconclusive: 29.1 µM [activator, single point]
16 | COCCN(Cc1cc2cc(C)ccc2n2nnnc12)C(=S)Nc1ccc(C)cc1 | inactive: -20.8% | –
17 | COc1ccc2nc(/C(C#N)=C\c3ccc(C(=O)O)cc3)[nH]c2c1 | – | active: 18.4 µM
18 | Cc1ccc(C)c(/C=N/n2cc(-c3ccccc3)[nH]c2=S)c1 | inactive: -0.947% | –
19 | COc1ccc(NC(=O)c2ccc(NC(=O)c3nc4nc(C)cc(C)n4n3)cc2)cc1 | – | inconclusive: 29.1 µM [activator, partial curve, poor fit]
20 | COc1cccc(N=Nc2ccc(O)c3ncccc23)c1 | inactive: 26.8% | –
21 | C(=C\c1ccco1)/c1nc2ccccc2[nH]1 | – | inconclusive: 23.1 µM [activator, partial curve, poor fit]
22 | COC(=O)C(C)N(C(=O)c1ccc(C(=O)c2ccccc2)cc1)c1c(C)cccc1C (stereo not drawn) | – | inconclusive: 35.5 µM [activator, single point]

Row | Compound | re-replication activation | Potency
23 | Cc1ccc(-c2ccc(/C=C3\C(=O)ON=C3c3ccccc3)o2)c([N+](=O)[O-])c1 | – | inconclusive: 16.4 µM [activator, single point]
24 | COCCn1c(SCC(=O)Nc2cccc(S(N)(=O)=O)c2)nc2cc(Cl)ccc2c1=O | – | inconclusive: 23.1 µM [activator, single point]
25 | Cc1c(C(=O)N2CCCCC2)c(S(=O)(=O)N2CCC(C)CC2)c(C)n1C | inactive: 0.917% | –
26 | COc1ccc(N2CCN(C(=O)c3ccccc3NC(=O)c3ccccc3)CC2)cc1 | – | inconclusive: 32.6 µM [activator, partial curve, poor fit]
27 | CCCCCCCCCCOC(=O)Cn1c(COc2ccc(OC)cc2)[n+](C)c2ccccc21 | – | inconclusive: 25.9 µM [activator, single point]
28 | CCOC(=O)Nc1nc(-c2ccccc2)c(C(=O)c2ccccc2)s1 | – | active: 0.92 µM
29 | Cn1cc(CNC(=O)C2CCC(=O)N(Cc3cccc(C(F)(F)F)c3)C2)cn1 (stereo not drawn) | – | inconclusive: 18.4 µM [activator, partial curve, poor fit]
30 | Clc1ccc(OCCCCCN2CCCC2)c(Br)c1 | – | inconclusive: 20.6 µM [activator, partial curve, poor fit]
31 | Nc1c(C(=O)Nc2ccccc2F)sc2nc(-c3cccnc3)ccc12 | – | inconclusive: 16.4 µM [activator, single point]
32 | Cc1ccc(CNC(=O)CCS(=O)(=O)Cc2ccc(C)cc2)cc1 | – | inconclusive: 16.4 µM [activator, single point]
33 | c1ccc2sc(N3CCOCC3)nc2c1 | inactive: 13.1% | –
34 | Cc1ccccc1C(=O)O/N=C/c1c(N2CCOCC2)n(C)c2ccccc12 | – | inconclusive: 0.82 µM [activator, full curve, poor fit]
35 | O=C(NCc1ccc(F)cc1)c1cc2c(s1)CS(=O)(=O)C2 | inactive: 7.09% | –
36 | COc1ccc(NC(=O)/C=C/c2ccc(Br)o2)cn1 | – | inconclusive: 0.517 µM [activator, full curve, poor fit]
37 | COc1ccc(NC(=O)c2cc(-c3ccc(C)c(C)c3O)n[nH]2)cc1Cl | – | inconclusive: 29.1 µM [activator, single point]
38 | CN(C)C(CNC(=O)CCc1nc2cc(Cl)ccc2n(Cc2ccccc2)c1=O)c1ccccc1 (stereo not drawn) | – | inconclusive: 29.1 µM [activator, single point]
39 | CCN1C/C(=C/c2ccc(OC)c(O)c2)C(=O)/C(=C/c2ccc(OC)c(O)c2)C1 | – | inconclusive: 20.6 µM [activator, single point]
40 | NCCCCCNC(=O)c1[nH]cnc1C(=O)N[C@@H](Cc1ccccc1)C(=O)OCc1ccccc1 | inactive: -9.38% | –
41 | CCN1CCN(Cc2ccc(NC(=O)c3ccc(C)c(NC(=O)C(=O)c4c[nH]c5ccccc45)c3)cc2C(F)(F)F)CC1 | – | inconclusive: 5.17 µM [activator, single point] and inconclusive: 4.11 µM [activator, single point]
42 | NC(=O)c1cc([N+](=O)[O-])ccc1NCc1ccc(C(=O)O)cc1 | inactive: -13% | –
43 | Cc1ccccc1NC(=O)CSc1nnc2ccc(-c3cccnc3)nn12 | – | inconclusive: 0.146 µM [activator, full curve, poor fit]
